Laboratory results: PubChem BioAssay AID1224828 (NIAID, 2016)
Shown is a random part of about 17,000 deposited reagents. Over the whole deposit, 762 (4.5%) got an active call. 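Active calls include both raised and lowered p65 entry, mostly lowered; wells with fewer than 50 cells lack a z-score.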 Raw values vary from plate to plate and are shown uncorrected.

Test: 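Find genes required for NF-kappaB p65 moving into the nucleus after LPS in mouse macrophages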 (primary screen)
System: mouse RAW264.7 G9 macrophage reporter cells (GFP-p65, Tnf promoter-mCherry)
Reagents: siRNA pool against mouse genes, 100 nM
Duration: 2 days siRNA transfection, then 40 min LPS before fixation
Challenge: LPS (Salmonella minnesota R595) at 10 ng/ml
Measured: 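Microscopy ratio of nuclear to perinuclear-ring GFP-p65 signal, scaled to the plate median; gene score is the average of two replicate robust z-scores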
Direction: p65 translocation robust z-score: higher = more nuclear NF-kappaB p65 after LPS than the plate median; nuclear/cytoplasmic p65 ratio: higher = more nuclear NF-kappaB p65
Call rule: 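Active if robust z is above 3.3 (negative regulators) or below -1.56, the Tlr4 control median (positive regulators); activity score 50 or more; control wells not called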
Meaning of the calls: active = hit (p65 shift raised or lowered); inactive = no clear change

For Chad (chondroadherin), the entry reads p65 translocation robust z-score -1.51; nuclear/cytoplasmic p65 ratio, rep 1 = 1.33; nuclear/cytoplasmic p65 ratio, rep 2 = 1.57; low cell count flag enough cells to score; inactive.
After knock-down of Rundc3b (RUN domain containing 3B) the results were p65 translocation robust z-score 0.22; nuclear/cytoplasmic p65 ratio, rep 1 = 1.69; nuclear/cytoplasmic p65 ratio, rep 2 = 1.63; low cell count flag enough cells to score; inactive.
For Cxcl3 (C-X-C motif chemokine ligand 3), the values are p65 translocation robust z-score 1.33; nuclear/cytoplasmic p65 ratio, rep 1 = 1.73; nuclear/cytoplasmic p65 ratio, rep 2 = 1.85; low cell count flag enough cells to score; inactive.
Depletion of Zfp277 (zinc finger protein 277) came out at: nuclear/cytoplasmic p65 ratio, rep 1 = 1.11; nuclear/cytoplasmic p65 ratio, rep 2 = 1.05; low cell count flag fewer than 50 cells per well; well left out of scoring; inactive.
Against Or13a27 (olfactory receptor family 13 subfamily A member 27), the values are nuclear/cytoplasmic p65 ratio, rep 1 = 1.41; nuclear/cytoplasmic p65 ratio, rep 2 = 1.19; low cell count flag fewer than 50 cells per well; well left out of scoring; inactive.
Depletion of Defa29 (defensin, alpha, 29) came out at: p65 translocation robust z-score -0.13; nuclear/cytoplasmic p65 ratio, rep 1 = 1.49; nuclear/cytoplasmic p65 ratio, rep 2 = 1.58; low cell count flag enough cells to score; inactive.
For Rif1 (replication timing regulatory factor 1) the deposit lists p65 translocation robust z-score 0.07; nuclear/cytoplasmic p65 ratio, rep 1 = 1.59; nuclear/cytoplasmic p65 ratio, rep 2 = 1.55; low cell count flag enough cells to score; inactive.
Against Gfi1 (growth factor independent 1 transcription repressor), the values are p65 translocation robust z-score -1.07; nuclear/cytoplasmic p65 ratio, rep 1 = 1.3; nuclear/cytoplasmic p65 ratio, rep 2 = 1.26; low cell count flag enough cells to score; inactive.
For Srpk2 (serine/arginine-rich protein specific kinase 2) the deposit lists nuclear/cytoplasmic p65 ratio, rep 1 = 1.7; nuclear/cytoplasmic p65 ratio, rep 2 = 1.55; low cell count flag fewer than 50 cells per well; well left out of scoring; inactive.
Against Rhbg (Rh family B glycoprotein), the entry reads nuclear/cytoplasmic p65 ratio, rep 1 = 1.21; nuclear/cytoplasmic p65 ratio, rep 2 = 1.21; low cell count flag fewer than 50 cells per well; well left out of scoring; inactive.
Against Rundc3a (RUN domain containing 3A), the values are p65 translocation robust z-score 0.83; nuclear/cytoplasmic p65 ratio, rep 1 = 1.65; nuclear/cytoplasmic p65 ratio, rep 2 = 1.62; low cell count flag enough cells to score; inactive.
With knock-down of Psmd7 (proteasome (prosome, macropain) 26S subunit, non-ATPase, 7) the results were nuclear/cytoplasmic p65 ratio, rep 1 = 1.29; nuclear/cytoplasmic p65 ratio, rep 2 = 1.22; low cell count flag fewer than 50 cells per well; well left out of scoring; inactive.
Depletion of Hdgfl1 (HDGF like 1) came out at: p65 translocation robust z-score -0.26; nuclear/cytoplasmic p65 ratio, rep 1 = 1.31; nuclear/cytoplasmic p65 ratio, rep 2 = 1.22; low cell count flag enough cells to score; inactive.
Depletion of Or10n1 (olfactory receptor family 10 subfamily N member 1) came out at: p65 translocation robust z-score 0.92; nuclear/cytoplasmic p65 ratio, rep 1 = 1.75; nuclear/cytoplasmic p65 ratio, rep 2 = 1.56; low cell count flag enough cells to score; inactive.

Part of the list above in another layout.
gene symbol,p65 translocation robust z-score,"nuclear/cytoplasmic p65 ratio, rep 1","nuclear/cytoplasmic p65 ratio, rep 2",low cell count flag,Outcome
Chad (chondroadherin),-1.51,1.33,1.57,enough cells to score,inactive
Rundc3b (RUN domain containing 3B),0.22,1.69,1.63,enough cells to score,inactive
